Measurements reported in PubChem BioAssay AID686938 (Drosophila RNAi Screening Center, 2013).

Assay: 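Fly genes required for calcium entry once internal stores are emptied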 (primary screen)
Cells: Drosophila S2R+ cells
Knock-down reagent: long dsRNA against Drosophila genes, about 0.25 µg dsRNA per well, roughly 10,000 cells
Time to read-out: 5 days of knock-down before the calcium assay
Treatment: thapsigargin (SERCA pump blocker) to empty calcium stores; entry signal taken 4 min after adding it
Measured: 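Per-well fluo-4 fluorescence in two replicates, unnormalised, measured in resting cells and 4 min after store depletion by the SERCA blocker thapsigargin; ratio of the two present in few wells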
Reading the numbers: calcium entry signal: higher = stronger calcium signal after store depletion; entry to resting ratio: higher = more calcium entry relative to resting level; resting calcium signal: higher = higher resting calcium signal
Hit rule: 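Hit if the duplicate-averaged plate z-score for entry over resting signal is under −3; wells with weak total dye signal (Fmax z < −2) or more than 5 off-targets removed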
Meaning of the calls: active = strongly reduced calcium entry; inactive = no strong reduction
In all, the deposit lists about 23,000 reagents; this is an unselected part of those that have a named target and a result. In the full data, 75 (0.33%) are marked active. 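Raw plate signals without normalisation; calls rest on plate z-scores that were not deposited; ratio present for only 364 wells.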 Names joined by + are all predicted targets of the reagent. Not given: the dose of the treatment.

predicted target | DRSC id | calcium entry signal, replicate 1 (fluorescence units) | calcium entry signal, replicate 2 (fluorescence units) | entry to resting ratio | resting calcium signal, replicate 1 (fluorescence units) | resting calcium signal, replicate 2 (fluorescence units) | activity call
Syx8 | DRSC10402 | 3.89e7 | 2.79e7 | – | 2.07e7 | 1.35e7 | inactive
Syx8 | DRSC22498 | 3.70e7 | 3.22e7 | – | 2.32e7 | 1.58e7 | inactive
Rpn7 | DRSC16841 | 1.75e7 | 1.87e7 | – | 1.21e7 | 1.13e7 | inactive
ghi | DRSC08985 | 4.13e7 | 3.39e7 | – | 1.96e7 | 1.81e7 | inactive
IntS12 | DRSC15818 | 2.62e7 | 3.05e7 | – | 1.48e7 | 1.51e7 | inactive
Jon65Ai | DRSC09731 | 2.25e7 | 3.77e7 | – | 1.17e7 | 1.82e7 | inactive
poe | DRSC03593 | 3.71e7 | – | – | 2.36e7 | – | inactive
kar | DRSC14496 | 3.32e7 | 3.67e7 | – | 1.56e7 | 1.67e7 | inactive
Lcch3 | DRSC22175 | 3.12e7 | 3.98e7 | – | 1.71e7 | 2.11e7 | inactive
for | DRSC00195 | 2.11e7 | 2.42e7 | – | 1.23e7 | 1.21e7 | inactive
for | DRSC00818 | 5.81e7 | – | – | 2.79e7 | – | inactive
NdufV3 | DRSC19423 | 4.03e7 | 3.94e7 | – | 1.94e7 | 1.67e7 | inactive
Mst27D | DRSC00967 | 2.81e7 | 3.70e7 | – | 1.58e7 | 1.63e7 | inactive
Fit1 | DRSC08450 | 5.80e7 | 4.67e7 | – | 4.08e7 | 1.96e7 | inactive
CG6125 | DRSC15970 | 2.01e7 | 3.19e7 | – | 1.05e7 | 5.15e7 | inactive
ppk17 | DRSC02252 | 3.40e7 | 2.15e7 | – | 1.49e7 | 1.13e7 | inactive
Fur2 | DRSC19817 | 2.13e7 | 1.87e7 | – | 1.26e7 | 9.87e6 | inactive
Prosbeta2R2 | DRSC12193 | 4.28e7 | 2.85e7 | – | 2.00e7 | 1.27e7 | inactive
CR40441 | DRSC22916 | 4.16e7 | 3.79e7 | – | 2.22e7 | 1.78e7 | inactive
CG4646 | DRSC06876 | 2.28e7 | 3.80e7 | – | 1.23e7 | 1.57e7 | inactive
CG32679 | DRSC17644 | 3.52e7 | 4.12e7 | – | 1.70e7 | 1.92e7 | inactive
CG13870 | DRSC06429 | 3.89e7 | 3.99e7 | – | 1.81e7 | 2.05e7 | inactive
CG31436 | DRSC14661 | 3.68e7 | 4.33e7 | – | 2.12e7 | 1.71e7 | inactive
ogre | DRSC18809 | 4.22e7 | 4.59e7 | – | 2.01e7 | 2.08e7 | inactive
CG2150 | DRSC15420 | 6.61e7 | 5.70e7 | 2.6 | 2.53e7 | 2.26e7 | inactive
CG43091 | DRSC13571 | 3.94e7 | 3.00e7 | – | 2.11e7 | 1.64e7 | inactive
puc | DRSC17034 | 4.63e7 | 6.37e7 | – | 2.03e7 | 2.91e7 | inactive
Ino80 | DRSC14760 | 3.34e7 | 4.08e7 | – | 4.93e7 | 1.96e7 | inactive
Ino80 | DRSC15333 | 3.33e7 | 4.07e7 | – | 3.80e7 | 1.82e7 | inactive
Ino80 | DRSC15501 | 3.85e7 | 3.97e7 | – | 5.23e7 | 1.91e7 | inactive
CG42507 + Trl | DRSC09325 | 4.63e7 | 3.90e7 | – | 2.02e7 | 1.85e7 | inactive
CG42507 + Trl | DRSC11308 | 2.57e7 | 1.95e7 | – | 2.14e7 | 1.24e7 | inactive
CG11693 | DRSC14353 | 3.16e7 | 3.45e7 | – | 1.65e7 | 1.71e7 | inactive
Cpr73D | DRSC11084 | 2.13e7 | 2.88e7 | – | 1.05e7 | 2.09e7 | inactive
CG42579 | DRSC20391 | 3.27e7 | 4.01e7 | – | 1.75e7 | 1.94e7 | inactive
asRNA:CR43470 + CG14830 | DRSC10200 | 2.44e7 | 3.75e7 | – | 1.27e7 | 1.76e7 | inactive
CG6225 | DRSC15996 | 3.78e7 | 3.82e7 | – | 1.98e7 | 1.94e7 | inactive
Epac | DRSC04969 | 4.56e7 | 2.77e7 | – | 2.03e7 | 1.47e7 | inactive
Epac | DRSC04996 | 3.63e7 | – | – | 1.90e7 | – | inactive
Epac | DRSC04997 | 4.04e7 | 4.32e7 | – | 2.09e7 | 2.13e7 | inactive
CG11474 | DRSC04112 | 3.24e7 | – | – | 1.65e7 | – | inactive
CG33635 | DRSC00006 | 2.01e7 | 2.48e7 | – | 1.13e7 | 1.13e7 | inactive
Ada1-1 + Ada1-2 | DRSC01220 | 5.63e7 | 3.37e7 | – | 2.79e7 | 1.69e7 | inactive
Ada1-1 + Ada1-2 | DRSC01222 | 4.43e7 | 3.52e7 | – | 2.31e7 | 1.82e7 | inactive
tgy | DRSC20045 | 5.30e7 | 4.08e7 | – | 2.56e7 | 1.84e7 | inactive
Gnpnat | DRSC15405 | 4.19e7 | 4.94e7 | – | 1.82e7 | 2.15e7 | inactive
Cyp12b2 | DRSC07364 | 5.00e7 | 5.57e7 | – | 2.16e7 | 2.54e7 | inactive
Lectin-galC1 | DRSC03362 | 5.00e7 | 5.05e7 | – | 2.51e7 | 2.10e7 | inactive
Graf | DRSC20131 | 3.57e7 | 3.86e7 | – | 1.54e7 | 1.61e7 | inactive
CG18477 + CG31780 | DRSC01955 | 4.92e7 | 3.55e7 | – | 2.18e7 | 1.74e7 | inactive
Hsc70-3 | DRSC20253 | 1.65e7 | 2.76e7 | – | 1.02e7 | 1.50e7 | inactive
Hex-t1 | DRSC16701 | 3.84e7 | 4.52e7 | – | 2.05e7 | 2.12e7 | inactive
GNBP-like3 | DRSC06385 | 3.63e7 | 3.54e7 | – | 1.72e7 | 1.99e7 | inactive
rst | DRSC17243 | 4.60e7 | 4.76e7 | – | 2.45e7 | 2.11e7 | inactive
rst | DRSC18828 | 5.03e7 | 6.47e7 | 2.1 | 2.40e7 | 2.80e7 | inactive
CG10750 | DRSC02105 | 4.09e7 | – | – | 2.02e7 | – | inactive
CG8708 | DRSC07240 | 4.01e7 | 3.32e7 | – | 1.55e7 | 1.60e7 | inactive
TwdlX | DRSC19151 | 3.35e7 | 3.78e7 | – | 1.74e7 | 1.69e7 | inactive
Ulp1 | DRSC19339 | 5.02e7 | 5.23e7 | – | 2.28e7 | 2.09e7 | inactive
Ibf2 | DRSC16551 | 3.10e7 | 3.44e7 | – | 1.65e7 | 1.78e7 | inactive
CG14424 | DRSC18472 | 4.63e7 | 6.16e7 | 2 | 2.28e7 | 2.60e7 | inactive
H15 | DRSC03339 | 2.44e7 | 2.25e7 | – | 1.23e7 | 9.99e6 | inactive
H15 | DRSC22199 | 3.98e7 | 6.90e7 | – | 1.88e7 | 3.07e7 | inactive
Ir48a | DRSC05301 | 4.07e7 | 5.13e7 | – | 2.17e7 | 2.21e7 | inactive
CG5611 | DRSC15843 | 2.06e7 | 3.57e7 | – | 1.06e7 | 1.54e7 | inactive
Nagk | DRSC15994 | 4.09e7 | 4.88e7 | – | 1.68e7 | 1.97e7 | inactive
Spps | DRSC15856 | 4.44e7 | 3.93e7 | – | 2.23e7 | 2.15e7 | inactive
Spps | DRSC23206 | 3.67e7 | 4.96e7 | – | 1.64e7 | 2.02e7 | inactive
CG8155 | DRSC07084 | 2.26e7 | 2.17e7 | – | 1.09e7 | 1.01e7 | inactive
CG8155 | DRSC21543 | 3.85e7 | 3.71e7 | – | 2.43e7 | 1.81e7 | inactive
Shmt | DRSC18264 | 3.27e7 | 4.56e7 | – | 1.54e7 | 2.05e7 | inactive
Adat1 | DRSC03479 | 4.07e7 | 2.97e7 | – | 1.76e7 | 1.41e7 | inactive
Sec15 | DRSC16179 | 3.69e7 | 3.18e7 | – | 2.44e7 | 5.63e7 | inactive
CG2182 | DRSC12308 | 3.19e7 | 3.83e7 | – | 1.42e7 | 1.64e7 | inactive
Ptr | DRSC04852 | 4.24e7 | 4.37e7 | – | 2.13e7 | 2.01e7 | inactive
Ptr | DRSC21517 | 3.69e7 | 3.45e7 | – | 1.93e7 | 1.67e7 | inactive

Records listed so far whose gene name begins with N or n (2):
predicted target | DRSC id | calcium entry signal, replicate 1 (fluorescence units) | calcium entry signal, replicate 2 (fluorescence units) | entry to resting ratio | resting calcium signal, replicate 1 (fluorescence units) | resting calcium signal, replicate 2 (fluorescence units) | activity call
NdufV3 | DRSC19423 | 4.03e7 | 3.94e7 | – | 1.94e7 | 1.67e7 | inactive
Nagk | DRSC15994 | 4.09e7 | 4.88e7 | – | 1.68e7 | 1.97e7 | inactive
